From US11865126B2, “Method for treating anxiety disorders, headache disorders, and eating disorders with psilocybin” (priority 2019, dated 2024)
For at least one compound, name, drawing or mass did not settle the structure.

Columns and labels:
healthy subjects [1] = test: CANTAB Rapid Visual Information Processing A prime (RVPA); assay type: in vivo, human; conditions: 10 mg and 25 mg, Day 28; p<0.05
healthy subjects [2] = test: Digit span forward test; assay type: in vivo, human; conditions: Day 7 (Visit 5)
Wistar-Kyoto (WKY) rats = test: EEG power spectral analysis; assay type: in vivo, rat; conditions: 1, 3 and 10 mg/kg i.p., subsequent part of the light period
CCK-4-treated rats = test: Elevated plus maze (EPM) after CCK-4 induced panic anxiety; assay type: in vivo, rat
Protocol: This example examines the effects of psilocybin on induced panic anxiety. The elevated plus maze (EPM) is a widely used behavioral assay for rodents to assess anti-panic or anti-anxiety effects of pharmacological agents. Briefly, rodents are placed at the junction of the four arms of the maze, facing an open arm, and entries/duration in each arm are recorded over a period of time. An increase in open arm activity reflects anti-anxiety behavior (Walf et al., Nature Protocols, 2007).
Panic anxiety can be induced in rodents through administration of panicogenic drugs such as cholecystokinin tetrapeptide (CCK-4). Peripheral administration of CCK-4 leads to an anxiogenic-like action in the EPM model of anxiety in rats. The anxiogenic effect of CCK-4 can be antagonized by benzodiazepine (e.g., diazepam) treatment.
Animal handling was performed on a daily basis starting 1 week before the EPM assay. CCK-4 was prepared in saline at the dosage volume of 1 mL/kg and was intraperitoneally administered to the rats 30 min before implementation of the EPM test resulting in a CCK-4 dose of 0.2 mg/kg. CCK-4 was administered to all treatment groups except for the vehicle control (saline). Treatment groups for this study are shown below in Table 33. The EPM assay was performed 2 hours, and 24 hours following administration of psilocybin, and 1 hour after administration of diazepam.
The apparatus used in the EPM assay was a PVC maze covered with Plexiglas and subdivided into four equal exploratory arms (21×8 cm). All arms were interconnected by a small platform (8×8 cm). The apparatus was placed 59 cm above the floor. Two arms were open and two arms were closed with walls (height: 21 cm).
After the appropriate pre-treatment time, the rat was placed on the platform opposite a closed arm. The number of entries and the time spent in each arm were recorded during a 5 min period. The animal was considered as entered in an arm when it placed four paws in the arm. During the trial, animal handling and the visibility of the operator was minimized as much as possible.
The results were analyzed by analysis of variance (ANOVA). Fisher's PLSD was used for pairwise comparisons and p value s 0.05 were considered significant.

[3] = test system: healthy psychedelic-naïve participants; design: species or system human; conditions: in vivo
female Wistar rats = test: Binge eating model: chow, chocolate and total food intake; conditions: for Chocolate intake during binging session vs vehicle/binge / Total food intake (chocolate and chow) during binging session vs vehicle/binge: 1, 3 and 10 mg/kg IP
[4] = 1, 3 and 10 mg/kg, 2 hours after administration
[5] = 3 and 10 mg/kg, 24 hours after administration

CN(C)CCc1c[nH]c2cccc(OP(=O)(O)O)c12 [psilocybin]
RVPA, LS mean difference from placebo (healthy subjects [1]): different from placebo
Digit span scores compared to placebo (healthy subjects [2]; 10 mg, p value 0.6432): No statistically significant difference
Digit span scores compared to placebo (healthy subjects [2]; 25 mg, p value 0.1147): No statistically significant difference
EEG theta (4-10 Hz) and beta (10-30 Hz) oscillations (Wistar-Kyoto (WKY) rats): increased
Number of entries into the open arms vs CCK-4 alone (CCK-4-treated rats; [4]): significantly increased
Time spent in the open arms vs CCK-4 alone (CCK-4-treated rats; [4]): significantly increased
Number of entries into the open arms vs CCK-4 alone (CCK-4-treated rats; [5]): significantly increased
Time spent in the open arms vs CCK-4 alone (CCK-4-treated rats; [5]): significantly increased
FERT, reaction time to disgust, 25 mg vs 1 mg dose [3]: significantly reduced
FERT, recognising the expression of disgust (reaction time) vs baseline [3]: significantly faster
Chocolate intake during binging session vs vehicle/binge (female Wistar rats; 1 hour after administration): significantly decreased
Total food intake (chocolate and chow) during binging session vs vehicle/binge (female Wistar rats; 1 hour after administration): significantly decreased
Chocolate intake during binging session vs vehicle/binge (female Wistar rats; 24 hour after administration): significantly decreased
Total food intake (chocolate and chow) during binging session vs vehicle/binge (female Wistar rats; 24 hour after administration): significantly decreased
Food intake over a 24 hour period (female Wistar rats; Day 1, all psilocybin groups): significantly reduced
